Assay results as given in US12006373.
No constants are given. Whether binding was seen depends on the method and setting. Some binding calls cover weakened binding; strength is not graded here.

Sequences of proteins named here, by UniProt entry; tags and fusion partners are left off. A change or cut given only in a name is not applied to a line headed by its entry. A line that says so, or that is headed by a name, gives the form on record, which may keep a tag or linker. Residues count along the entry.
UniProt P07766: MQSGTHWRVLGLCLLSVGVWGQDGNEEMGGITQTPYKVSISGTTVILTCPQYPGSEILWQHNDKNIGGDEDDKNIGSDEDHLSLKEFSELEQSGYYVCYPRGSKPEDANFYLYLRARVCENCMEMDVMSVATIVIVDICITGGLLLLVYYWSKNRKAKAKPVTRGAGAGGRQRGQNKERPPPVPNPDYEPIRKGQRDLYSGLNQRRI
human CD3ε expressed on Jurkat T cells (clone E6-1) as part of TCR-CD3 complexes: residues 23-207 of P07766
recombinant human CD3ε protein with Fc-tag (Sino Biological): residues 23-126 of P07766

Key:
[1] = target: human CD3ε expressed on Jurkat T cells (clone E6-1) as part of TCR-CD3 complexes (human) (UniProt P07766); test: flow cytometry, phage on Jurkat cells
[2] = target: recombinant human CD3ε protein with Fc-tag (Sino Biological) (human) (UniProt P07766); test: biopanning of Ph.D.-7 phage library on recombinant CD3ε-Fc captured on protein A/G magnetic beads
[3] = target: human CD3ε expressed on Jurkat T cells (clone E6-1) as part of TCR-CD3 complexes (human) (UniProt P07766); test: flow cytometry, phage on paraformaldehyde-fixed Jurkat cells, anti-M13 antibody
[4] = target: human CD3ε expressed on Jurkat T cells (clone E6-1) as part of TCR-CD3 complexes (human) (UniProt P07766); test: flow cytometry, phage on Jurkat cells, anti-M13 antibody
[5] = target: recombinant human CD3ε biotinylated at the C-terminus, on streptavidin-coated microbeads (human) (UniProt P07766); test: flow cytometry, phage on streptavidin microbeads decorated with biotinylated CD3ε
[6] = target: human CD3ε expressed on Jurkat T cells (clone E6-1) as part of TCR-CD3 complexes (human) (UniProt P07766); test: flow cytometry, 10^10 PFU phage per 10^5 Jurkat cells, anti-M13 antibody

Measured: binding

B1: phage clone 11 displaying anti-CD3ε peptide 11 (FWSSPQM) (peptide, not shown: large carriers)
chain: FWSSPQMGGGS
binds: [1] | [2] | [3]

B2: phage clone 13 displaying anti-CD3ε peptide 13 (WSLGYTG) (peptide, not shown: large carriers)
chain: WSLGYTGGGGS
not listed: [3]
binds: all other assays above
